{"source": "patent US10059975B2", "about": "“Methods for the isolation and identification of microorganisms” (bioMerieux, Inc., priority 2008, dated 2018)", "test_system": "positive blood culture broths containing S. pneumoniae, E. coli and S. aureus", "experiment": "Screening of density cushion compounds: separation of microorganisms from lysed positive blood culture broth", "conditions": "0.7 mL lysate over 0.5 mL cushion, 2 minutes at approximately 10,000 g", "data": [{"smiles": "[Cl-].[Cs+]", "note": "[cesium chloride]", "values": [{"measurement": "separation results as density cushion (in words)", "result": "Excellent separation"}]}]}
